Reference: paper PMC6805484
No constants are given. Whether binding was seen depends on the method and setting. In cells and extracts the contact can be indirect. Some results given as binding are weak or reduced against the parent protein; the word gives no strength. For some of these results: Sequences can lack the tags named with a protein.

Sequences of proteins named here, by UniProt entry; tags and fusion partners are left off.
UniProt P11940: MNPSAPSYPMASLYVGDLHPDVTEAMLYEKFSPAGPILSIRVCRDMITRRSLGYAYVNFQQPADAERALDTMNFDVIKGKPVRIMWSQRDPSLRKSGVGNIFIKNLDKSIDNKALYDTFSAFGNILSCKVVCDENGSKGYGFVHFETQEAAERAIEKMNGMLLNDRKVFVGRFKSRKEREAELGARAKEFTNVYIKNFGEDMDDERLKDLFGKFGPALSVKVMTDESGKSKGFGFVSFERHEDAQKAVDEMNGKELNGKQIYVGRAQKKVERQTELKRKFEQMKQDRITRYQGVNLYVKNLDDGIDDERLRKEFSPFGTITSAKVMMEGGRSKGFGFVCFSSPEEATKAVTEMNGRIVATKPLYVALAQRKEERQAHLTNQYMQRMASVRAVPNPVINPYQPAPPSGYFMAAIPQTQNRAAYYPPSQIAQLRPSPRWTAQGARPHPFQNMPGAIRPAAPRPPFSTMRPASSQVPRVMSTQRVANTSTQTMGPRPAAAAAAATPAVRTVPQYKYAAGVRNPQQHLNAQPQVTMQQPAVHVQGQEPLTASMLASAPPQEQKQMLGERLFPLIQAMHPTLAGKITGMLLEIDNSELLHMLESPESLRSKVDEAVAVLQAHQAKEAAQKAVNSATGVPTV
UniProt Q15717: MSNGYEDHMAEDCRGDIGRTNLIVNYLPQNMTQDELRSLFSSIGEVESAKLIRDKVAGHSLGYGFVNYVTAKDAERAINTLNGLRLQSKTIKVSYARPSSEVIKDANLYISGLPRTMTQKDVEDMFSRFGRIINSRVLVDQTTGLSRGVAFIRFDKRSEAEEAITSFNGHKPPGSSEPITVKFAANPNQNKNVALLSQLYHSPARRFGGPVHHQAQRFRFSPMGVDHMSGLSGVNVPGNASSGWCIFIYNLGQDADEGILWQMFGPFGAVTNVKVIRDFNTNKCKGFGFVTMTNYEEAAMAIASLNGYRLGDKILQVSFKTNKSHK
UniProt Q9NZI8: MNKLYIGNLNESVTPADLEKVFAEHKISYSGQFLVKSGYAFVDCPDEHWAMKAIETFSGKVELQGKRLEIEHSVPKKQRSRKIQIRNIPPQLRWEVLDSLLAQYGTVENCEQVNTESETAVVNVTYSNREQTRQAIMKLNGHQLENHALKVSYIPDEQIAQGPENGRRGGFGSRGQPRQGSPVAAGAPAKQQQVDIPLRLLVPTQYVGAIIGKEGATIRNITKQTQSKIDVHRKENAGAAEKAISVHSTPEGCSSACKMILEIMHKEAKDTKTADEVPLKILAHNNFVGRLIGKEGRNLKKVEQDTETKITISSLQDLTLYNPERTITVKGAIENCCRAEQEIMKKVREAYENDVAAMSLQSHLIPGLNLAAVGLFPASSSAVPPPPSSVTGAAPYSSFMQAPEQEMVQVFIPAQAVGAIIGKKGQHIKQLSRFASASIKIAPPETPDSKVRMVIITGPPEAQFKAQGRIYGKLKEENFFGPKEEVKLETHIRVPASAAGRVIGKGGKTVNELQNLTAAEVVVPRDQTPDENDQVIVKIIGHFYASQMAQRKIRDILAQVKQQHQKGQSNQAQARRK

Tests used:
[1] = target: GFP-tagged PABPC1 (human) (UniProt P11940); experiment: co-IP; as a2, the enriched proteins incubated with 0.5 U/μl RNase A and 20 U/μl RNase T1 for 30 min at 4 °C after the first two washes
[2] = target: GFP-tagged ELAVL1 (UniProt Q15717); experiment: as above
[3] = target: GFP-tagged IGF2BP1 (UniProt Q9NZI8); experiment: as above
[4] = target: GFP-tagged PABPC1 (human) (UniProt P11940); experiment: co-IP; GFP-trap agarose beads with cleared lysates of HEK293T cells transiently expressing a GFP-tagged bait or GFP (empty vector); mRIPA buffer, 1 h at 4 °C, five washes; Western blot for the endogenous partner
[5] = target: GFP-tagged ELAVL1 (UniProt Q15717); experiment: as above
[6] = target: GFP-tagged IGF2BP1 (UniProt Q9NZI8); experiment: as above
[7] = target: T1, GFP-MKRN1^wt (Makorin Ring Finger Protein 1, wild type, N-terminally GFP-tagged) (human), Q9UHC7; experiment: as above; conditions: remark: other sources report otherwise
T1 chain: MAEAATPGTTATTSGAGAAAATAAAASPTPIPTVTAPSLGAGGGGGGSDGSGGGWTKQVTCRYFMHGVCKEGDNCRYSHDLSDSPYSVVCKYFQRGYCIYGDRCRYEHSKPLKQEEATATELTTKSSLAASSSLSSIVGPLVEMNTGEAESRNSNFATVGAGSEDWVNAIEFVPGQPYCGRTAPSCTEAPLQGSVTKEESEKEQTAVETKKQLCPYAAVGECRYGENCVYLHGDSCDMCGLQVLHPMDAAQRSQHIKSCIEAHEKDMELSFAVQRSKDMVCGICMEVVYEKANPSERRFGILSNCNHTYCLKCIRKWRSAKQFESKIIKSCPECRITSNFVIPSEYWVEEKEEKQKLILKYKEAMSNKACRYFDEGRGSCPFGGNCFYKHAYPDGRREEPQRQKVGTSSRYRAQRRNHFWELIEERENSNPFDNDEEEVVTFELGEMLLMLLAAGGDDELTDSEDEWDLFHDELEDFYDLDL

B1: MKRN1 (endogenous) (protein, UniProt Q9UHC7 1-482)
chain: MAEAATPGTTATTSGAGAAAATAAAASPTPIPTVTAPSLGAGGGGGGSDGSGGGWTKQVTCRYFMHGVCKEGDNCRYSHDLSDSPYSVVCKYFQRGYCIYGDRCRYEHSKPLKQEEATATELTTKSSLAASSSLSSIVGPLVEMNTGEAESRNSNFATVGAGSEDWVNAIEFVPGQPYCGRTAPSCTEAPLQGSVTKEESEKEQTAVETKKQLCPYAAVGECRYGENCVYLHGDSCDMCGLQVLHPMDAAQRSQHIKSCIEAHEKDMELSFAVQRSKDMVCGICMEVVYEKANPSERRFGILSNCNHTYCLKCIRKWRSAKQFESKIIKSCPECRITSNFVIPSEYWVEEKEEKQKLILKYKEAMSNKACRYFDEGRGSCPFGGNCFYKHAYPDGRREEPQRQKVGTSSRYRAQRRNHFWELIEERENSNPFDNDEEEVVTFELGEMLLMLLAAGGDDELTDSEDEWDLFHDELEDFYDLDL
Which binding [1] does the source give for B1 here?
The binding was “binds”.

What about the binding [2] of the same binder?
The binding was “binds”.

And the binding [3]?
The binding was “binds”.

And the binding [4]?
The binding was “binds”.

What about the binding [5] of the same binder?
Its binding is “binds”.

What about the binding [6] of the same binder?
Its binding is “binds”.

B2: ZNF598 (endogenous), Q86UK7 1-904 (protein)
chain: MAAAGGAEGRRAALEAAAAAAPERGGGSCVLCCGDLEATALGRCDHPVCYRCSTKMRVLCEQRYCAVCREELRQVVFGKKLPAFATIPIHQLQHEKKYDIYFADGKVYALYRQLLQHECPRCPELPPFSLFGDLEQHMRRQHELFCCRLCLQHLQIFTYERKWYSRKDLARHRMQGDPDDTSHRGHPLCKFCDERYLDNDELLKHLRRDHYFCHFCDSDGAQDYYSDYAYLREHFREKHFLCEEGRCSTEQFTHAFRTEIDLKAHRTACHSRSRAEARQNRHIDLQFSYAPRHSRRNEGVVGGEDYEEVDRYSRQGRVARAGTRGAQQSRRGSWRYKREEEDREVAAAVRASVAAQQQEEARRSEDQEEGGRPKKEEAAARGPEDPRGPRRSPRTQGEGPGPKETSTNGPVSQEAFSVTGPAAPGCVGVPGALPPPSPKLKDEDFPSLSASTSSSCSTAATPGPVGLALPYAIPARGRSAFQEEDFPALVSSVPKPGTAPTSLVSAWNSSSSSKKVAQPPLSAQATGSGQPTRKAGKGSRGGRKGGPPFTQEEEEDGGPALQELLSTRPTGSVSSTLGLASIQPSKVGKKKKVGSEKPGTTLPQPPPATCPPGALQAPEAPASRAEGPVAVVVNGHTEGPAPARSAPKEPPGLPRPLGSFPCPTPQEDFPALGGPCPPRMPPPPGFSAVVLLKGTPPPPPPGLVPPISKPPPGFSGLLPSPHPACVPSPATTTTTKAPRLLPAPRAYLVPENFRERNLQLIQSIRDFLQSDEARFSEFKSHSGEFRQGLISAAQYYKSCRDLLGENFQKVFNELLVLLPDTAKQQELLSAHTDFCNREKPLSTKSKKNKKSAWQATTQQAGLDCRVCPTCQQVLAHGDASSHQALHAARDDDFPSLQAIARIIT
B2 was tested. Which binding [7] did it give?
Its binding is “no binding”.
